Reference: PubChem BioAssay AID504774 (Drosophila RNAi Screening Center, 2011)
The deposit covers about 23,000 reagents; below is an unselected part of those that have a named target and a result. 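Values are quantile-normalised luminescence on an arbitrary scale; higher means more cells surviving MMS.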

Assay: 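Knock-downs that shift viability of MMS-exposed cells relative to untreated ones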 (primary screen)
Cell system: Drosophila Kc167 cells
Reagents: long dsRNA against Drosophila genes, about 0.25 µg dsRNA per well
Duration: about 6 days: 3 days knock-down, then 3 days with or without MMS
Conditions: methyl methanesulphonate 0.004% (w/v) for 3 days after knock-down
Detection: 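ATP-dependent luminescence as a measure of live cells in MMS-exposed wells, quantile normalised within each plate, with replicate values also given as a mean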
Scale: mean viability with MMS and viability with MMS: higher = more surviving cells after MMS

target gene | dsRNA | mean viability with MMS | viability with MMS, replicate 1 | viability with MMS, replicate 2
xmas-1 (retired record) | DRSC20386 | 3.42e6 | 3.82e6 | 3.90e6
TAF1C-like | DRSC04073 | 3.68e6 | 3.94e6 | 4.22e6
CG31870 | DRSC21681 | 3.51e6 | 3.98e6 | 4.00e6
CG10631 | DRSC02081 | 3.65e6 | 4.06e6 | 4.28e6
Ids (Iduronate 2-sulfatase) | DRSC08222 | 3.58e6 | 4.03e6 | 4.07e6
CG17528 | DRSC07761 | 3.58e6 | 4.10e6 | 4.01e6
CG7990 | DRSC19296 | 3.54e6 | 4.00e6 | 4.03e6
CG7990 | DRSC20069 | 3.09e6 | 3.55e6 | 3.55e6
CG7990 | DRSC23195 | 3.44e6 | 3.86e6 | 3.97e6
CG31516 | DRSC11994 | 3.56e6 | 4.02e6 | 4.06e6
RpL7A (Ribosomal protein L7A) | DRSC18709 | 3.06e6 | 3.49e6 | 3.58e6
CG5217 | DRSC15740 | 3.54e6 | 4.06e6 | 3.97e6
CG10761 | DRSC17753 | 3.60e6 | 4.12e6 | 4.04e6
Nhe2 (Na[+]/H[+] hydrogen exchanger 2) | DRSC03172 | 3.36e6 | 3.80e6 | 3.76e6
Nhe2 (Na[+]/H[+] hydrogen exchanger 2) | DRSC03377 | 3.64e6 | 4.12e6 | 4.13e6
SNF4Agamma (SNF4/AMP-activated protein kinase gamma subunit) | DRSC13461 | 3.57e6 | 4.02e6 | 4.07e6
SNF4Agamma (SNF4/AMP-activated protein kinase gamma subunit) | DRSC13463 | 3.67e6 | 4.07e6 | 4.20e6
SNF4Agamma (SNF4/AMP-activated protein kinase gamma subunit) | DRSC15879 | 3.40e6 | 3.87e6 | 3.87e6
SNF4Agamma (SNF4/AMP-activated protein kinase gamma subunit) | DRSC16847 | 3.64e6 | 4.17e6 | 4.05e6
Esp (Epidermal stripes and patches) | DRSC16664 | 3.48e6 | 3.87e6 | 4.00e6
CG34404 | DRSC15335 | 3.50e6 | 4.08e6 | 3.87e6
CG34404 | DRSC15978 | 3.39e6 | 3.81e6 | 3.85e6
CG14294 | DRSC14774 | 3.52e6 | 4.04e6 | 3.96e6
CG13743 | DRSC05139 | 3.58e6 | 3.92e6 | 4.20e6
CG13743 | DRSC06414 | 3.42e6 | 3.94e6 | 3.84e6
CG13743 | DRSC22775 | 3.50e6 | 3.99e6 | 3.97e6
Cht10 (Chitinase 10) | DRSC03766 | 3.63e6 | 4.13e6 | 4.11e6
Cht10 (Chitinase 10) | DRSC03767 | 3.45e6 | 3.82e6 | 4.00e6
Cht10 (Chitinase 10) | DRSC03768 | 3.56e6 | 4.04e6 | 4.03e6

Already shown: 2 of the entries above.
target gene | dsRNA | mean viability with MMS | viability with MMS, replicate 1 | viability with MMS, replicate 2
CG14294 | DRSC14774 | 3.52e6 | 4.04e6 | 3.96e6
CG13743 | DRSC05139 | 3.58e6 | 3.92e6 | 4.20e6
